Literature values, collected in PMC11045845 (Nature Communications, 2024).

Details: DMPC multi-bilayers

| Substance | tilt angle |
| --- | --- |
| cyclo[(L-Trp-D-Leu)3-L-Gln-D-Leu] | 7 ° |
| gramicidin A | 15 ° |
